The values below come from paper doi:10.1101/094961 (bioRxiv, 2017).

Amino acid sequences for entries named in this document (tags omitted).
UniProt Q06796: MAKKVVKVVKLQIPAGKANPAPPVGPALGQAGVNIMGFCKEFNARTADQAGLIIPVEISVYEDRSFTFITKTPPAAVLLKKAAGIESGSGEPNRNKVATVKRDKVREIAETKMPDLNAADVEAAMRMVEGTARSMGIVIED
UniProt P37870: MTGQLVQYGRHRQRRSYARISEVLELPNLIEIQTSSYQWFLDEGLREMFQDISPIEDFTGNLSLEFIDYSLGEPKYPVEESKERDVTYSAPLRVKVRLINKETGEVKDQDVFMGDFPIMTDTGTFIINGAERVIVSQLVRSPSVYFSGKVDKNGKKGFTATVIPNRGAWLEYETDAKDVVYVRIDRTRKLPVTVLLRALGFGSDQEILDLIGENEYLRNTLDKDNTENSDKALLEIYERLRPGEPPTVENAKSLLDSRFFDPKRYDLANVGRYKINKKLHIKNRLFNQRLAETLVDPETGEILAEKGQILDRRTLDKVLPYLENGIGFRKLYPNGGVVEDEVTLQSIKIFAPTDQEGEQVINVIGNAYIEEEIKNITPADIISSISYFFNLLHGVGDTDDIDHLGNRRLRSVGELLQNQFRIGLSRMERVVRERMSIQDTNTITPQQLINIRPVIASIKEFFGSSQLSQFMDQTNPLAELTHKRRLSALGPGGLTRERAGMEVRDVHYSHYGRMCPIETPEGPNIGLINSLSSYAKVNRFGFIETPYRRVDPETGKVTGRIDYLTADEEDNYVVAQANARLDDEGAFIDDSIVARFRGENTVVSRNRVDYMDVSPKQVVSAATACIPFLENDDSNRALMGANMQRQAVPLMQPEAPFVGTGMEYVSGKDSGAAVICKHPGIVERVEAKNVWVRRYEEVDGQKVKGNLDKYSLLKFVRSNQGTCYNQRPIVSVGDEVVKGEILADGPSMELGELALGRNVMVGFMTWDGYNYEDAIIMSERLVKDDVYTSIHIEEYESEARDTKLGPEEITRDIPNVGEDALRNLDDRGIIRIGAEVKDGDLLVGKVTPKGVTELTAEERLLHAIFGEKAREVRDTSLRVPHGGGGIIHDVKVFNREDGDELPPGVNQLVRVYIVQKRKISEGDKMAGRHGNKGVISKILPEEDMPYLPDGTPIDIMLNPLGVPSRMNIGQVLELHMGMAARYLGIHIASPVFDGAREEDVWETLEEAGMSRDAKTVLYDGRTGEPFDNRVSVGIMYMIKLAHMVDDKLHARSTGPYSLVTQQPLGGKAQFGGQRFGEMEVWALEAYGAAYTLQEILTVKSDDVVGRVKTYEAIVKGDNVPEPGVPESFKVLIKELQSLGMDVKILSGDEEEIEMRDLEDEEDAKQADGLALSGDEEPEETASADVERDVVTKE
UniProt P37871: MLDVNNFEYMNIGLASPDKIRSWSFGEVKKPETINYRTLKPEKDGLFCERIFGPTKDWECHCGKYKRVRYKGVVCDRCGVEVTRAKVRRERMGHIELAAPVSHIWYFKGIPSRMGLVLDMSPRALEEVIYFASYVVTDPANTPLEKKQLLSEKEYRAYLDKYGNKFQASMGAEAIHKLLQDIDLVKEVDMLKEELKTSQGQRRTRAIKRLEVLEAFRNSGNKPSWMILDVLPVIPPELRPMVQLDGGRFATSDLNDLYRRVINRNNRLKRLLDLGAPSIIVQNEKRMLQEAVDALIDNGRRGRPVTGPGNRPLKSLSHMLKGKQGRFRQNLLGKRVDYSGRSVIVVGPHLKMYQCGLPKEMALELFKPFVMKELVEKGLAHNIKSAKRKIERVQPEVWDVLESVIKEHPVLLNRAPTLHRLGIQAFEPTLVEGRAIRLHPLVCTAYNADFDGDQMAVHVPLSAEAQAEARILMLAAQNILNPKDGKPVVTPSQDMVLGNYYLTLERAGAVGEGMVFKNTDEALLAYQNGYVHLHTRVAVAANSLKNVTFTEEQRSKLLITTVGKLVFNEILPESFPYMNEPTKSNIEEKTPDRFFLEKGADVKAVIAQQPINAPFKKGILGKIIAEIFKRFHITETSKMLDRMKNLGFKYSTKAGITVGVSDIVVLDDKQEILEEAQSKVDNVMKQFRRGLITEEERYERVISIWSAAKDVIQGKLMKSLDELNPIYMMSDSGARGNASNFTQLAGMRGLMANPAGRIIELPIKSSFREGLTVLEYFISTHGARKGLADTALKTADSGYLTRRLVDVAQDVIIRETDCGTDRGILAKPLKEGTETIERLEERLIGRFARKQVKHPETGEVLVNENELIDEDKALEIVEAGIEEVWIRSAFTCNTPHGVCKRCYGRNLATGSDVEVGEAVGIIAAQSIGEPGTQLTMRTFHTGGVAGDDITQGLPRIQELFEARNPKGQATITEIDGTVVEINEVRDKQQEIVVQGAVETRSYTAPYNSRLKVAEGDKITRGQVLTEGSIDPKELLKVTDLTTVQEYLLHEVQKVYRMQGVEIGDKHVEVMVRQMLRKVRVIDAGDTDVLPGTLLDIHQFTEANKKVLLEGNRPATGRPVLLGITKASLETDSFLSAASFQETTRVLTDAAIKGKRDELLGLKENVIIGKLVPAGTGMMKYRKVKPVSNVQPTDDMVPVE

Holding throughout (test): cross-linking
In experiment [1] the target is ribosomal protein RL11 (B. subtilis (endogenous in strain 168)) (UniProt Q06796).
Experiment [2] deals with T1, transcription elongation factor NusA (B. subtilis (endogenous in strain 168)) (UniProt P32727).
T1 sequence: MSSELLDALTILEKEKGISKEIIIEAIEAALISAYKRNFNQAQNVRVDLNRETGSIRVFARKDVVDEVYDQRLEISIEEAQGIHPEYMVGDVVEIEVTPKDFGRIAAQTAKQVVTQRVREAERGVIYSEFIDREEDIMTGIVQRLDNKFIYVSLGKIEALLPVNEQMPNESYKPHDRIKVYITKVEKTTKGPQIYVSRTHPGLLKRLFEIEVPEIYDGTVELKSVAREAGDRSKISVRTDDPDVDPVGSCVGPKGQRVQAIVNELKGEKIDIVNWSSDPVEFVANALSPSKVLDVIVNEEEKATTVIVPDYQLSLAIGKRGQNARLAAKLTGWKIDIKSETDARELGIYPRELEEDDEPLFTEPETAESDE

Experiment [3] has as its target RNA polymerase β subunit (B. subtilis (endogenous in strain 168)) (UniProt P37870).
The target in experiment [4] is RNAP β' subunit (RpoC) (B. subtilis (endogenous in strain 168)) (UniProt P37871).

These are yes or no findings as the source states them, for the method shown. In cells and extracts the contact can be indirect. Some entries that bind do so weakly or less than the wild type.

B1: Ribosome-recycling factor RRF (protein, UniProt P81101 1-185)
chain: MSKEVLTQTKEKMEKAIAAYQRELATVRAGRANPSLLDKVTVEYYGAQTPLNQLSSINVPEARMLVITPYDKTAIGDIEKAILKADLGLTPTSDGNMIRIAIPALTEERRKELVKVVKKYAEEAKVAVRNVRRDANDDLKKLEKNGDITEDELRASTEDVQKLTDEYVSKIDSVTKDKEKEIMEV
For B1, the binding entry in experiment [1] was “binds”.

B2: glutamate dehydrogenase GudB (protein, UniProt P50735 1-427)
chain: MAADRNTGHTEEDKLDVLKSTQTVIHKALEKLGYPEEVYELLKEPMRLLTVKIPVRMDDGSVKIFTGYRAQHNDSVGPTKGGIRFHPNVTEKEVKAVKALSIWMSLKCGIIDLPYGGGKGGIVCDPRDMSFRELERLSRGYVRAISQIVGPTKDVPAPDVFTNSQIMAWMMDEYSRIDEFNSPGFITGKPLVLGGSHGRESATAKGVTICIKEAAKKRGIDIKGARVVVQGFGNAGSYLAKFMHDAGAKVVGISDAYGGLYDPEGLDIDYLLDRRDSFGTVTKLFNDTITNQELLELDCDILVPAAIENQITEENAHNIRAKIVVEAANGPTTLEGTKILSDRDILLVPDVLASAGGVTVSYFEWVQNNQGFYWSEEEVEEKLEKMMVKSFNNIYEMANNRRIDMRLAAYMVGVRKMAEASRFRGWI
In the case of B2, in experiment [2], the binding entry is recorded as “binds”.

B3: transcription elongation factor GreA (protein, UniProt P80240 1-157)
chain: MAQEKVFPMTAEGKQKLEQELEYLKTVKRKEVVERIKIARSFGDLSENSEYDSAKEEQAFVEGRVTTLENMIRNAKIIEDDGGSNVVGLGKTVTFVELPDGDEESYTIVGSAEADPFEGKISNDSPIAKSLLGKKVDEEVTVQTPGGEMLVKIVKIS
For B3, the binding result in experiment [3] and in experiment [4] was “binds” each time.

B4: transcription elongation factor NusA (protein, UniProt P32727 1-371)
chain: MSSELLDALTILEKEKGISKEIIIEAIEAALISAYKRNFNQAQNVRVDLNRETGSIRVFARKDVVDEVYDQRLEISIEEAQGIHPEYMVGDVVEIEVTPKDFGRIAAQTAKQVVTQRVREAERGVIYSEFIDREEDIMTGIVQRLDNKFIYVSLGKIEALLPVNEQMPNESYKPHDRIKVYITKVEKTTKGPQIYVSRTHPGLLKRLFEIEVPEIYDGTVELKSVAREAGDRSKISVRTDDPDVDPVGSCVGPKGQRVQAIVNELKGEKIDIVNWSSDPVEFVANALSPSKVLDVIVNEEEKATTVIVPDYQLSLAIGKRGQNARLAAKLTGWKIDIKSETDARELGIYPRELEEDDEPLFTEPETAESDE
Regarding B4, in experiment [3], the binding result is given as “binds”.
